Experiment [1] addresses T1, Bcl-xL-Beclin 1 complex (Homo sapiens, UniProt Q07817).
T1 construct: made in house
Briefly: FP-based high-throughput screening, primary screen. The experiment is classed as binding. The text has this:
Next, we optimized the FP competitive binding assay in a 384-well microplate format and carried out a small-scale HTS using a small library, which contains 6580 compounds from Prestwick, Microsource and our in-house CMLD library. Then, the FP assay was optimized and applied in screening the larger Chembridge library consisting of 43736 compounds. HTS cascades are shown in Supplementary Figure 1A–1B. […] All chemical structures can be found on the PubChem website (http://pubchem.ncbi.nlm.nih.gov/).
(§1) Then the plates were read by Envision (Perkin Elmer, Waltham, MA). […] The hits were selected from library stocks and reconfirmed in a concentration response FP assay (6 doses ranging from 5 μM to 160 μM or 8 doses ranging from 0.5 μM to 60 μM).

Sequences of proteins named here, by UniProt entry; tags and fusion partners are left off.
UniProt Q07817, whole entry: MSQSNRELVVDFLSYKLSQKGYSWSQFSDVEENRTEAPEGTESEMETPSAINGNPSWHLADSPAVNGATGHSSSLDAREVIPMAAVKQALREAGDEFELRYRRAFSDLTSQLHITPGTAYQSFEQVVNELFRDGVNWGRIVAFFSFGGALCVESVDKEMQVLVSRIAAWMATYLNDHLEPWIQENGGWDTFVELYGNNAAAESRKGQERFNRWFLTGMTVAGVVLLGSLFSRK

Experiment [2] deals with T1, Bcl-xL-Beclin 1 complex. Briefly: Concentration response FP reconfirmation of HTS hits. The experiment is classed as binding. The procedure: as §1

As for `CC(C)(C)CC(C)(C)c1ccc(OCCOCC[N+](C)(C)Cc2ccccc2)cc1` [Compound A07, BENZETHONIUM CHLORIDE], in experiment [1] (first screen, 40 μM compound, 2.5 μM Bcl-xL, 400 nM 20-mer), the “Primary Screen mP” value amounted to 120.2 mP. For the same molecule, the inhibition (usually the relative decrease from the control value, in per cent) at 40 µM in experiment [1] (read-out: Primary Screen % Inhibition) came out at 9.66%; in experiment [2] (read-out: Dose-response (% Inhibition) 40 μM), 3.4%. In experiment [2] (read-out: Dose-response (% Inhibition) 5 μM), the inhibition at 5 µM was -3.1%. Moreover, the inhibition at 10 µM in experiment [2] (read-out: Dose-response (% Inhibition) 10 μM) was -0.1%. The inhibition at 20 µM in experiment [2] (read-out: Dose-response (% Inhibition) 20 μM) is 2.1%. In addition, the inhibition at 80 µM in experiment [2] (read-out: Dose-response (% Inhibition) 80 μM) was found to be 6.4%. For the same molecule, the inhibition at 160 µM in experiment [2] (read-out: Dose-response (% Inhibition) 160 μM) came to 13.7%.

For the origin of these results see article PMC5584254, “Identification of novel small molecule Beclin 1 mimetics activating autophagy” (Oncotarget, 2017).
